Experimental data as given in article PMC4566985.
Results are given in words; binding and its absence hold for the method and conditions named. Some entries that bind do so weakly or less than the wild type.

T1: Mitogen-activated protein kinase kinase 5 (MKK5) (Arabidopsis) (UniProt Q8RXG3)
T1 sequence: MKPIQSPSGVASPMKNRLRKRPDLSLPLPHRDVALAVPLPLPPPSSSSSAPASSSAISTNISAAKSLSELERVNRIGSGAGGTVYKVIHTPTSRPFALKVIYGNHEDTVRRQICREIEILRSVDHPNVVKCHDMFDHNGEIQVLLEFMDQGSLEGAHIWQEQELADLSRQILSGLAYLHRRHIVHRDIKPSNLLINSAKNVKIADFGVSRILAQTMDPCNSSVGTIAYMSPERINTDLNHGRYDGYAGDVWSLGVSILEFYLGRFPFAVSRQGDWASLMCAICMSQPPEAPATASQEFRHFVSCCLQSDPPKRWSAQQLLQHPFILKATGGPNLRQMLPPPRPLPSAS

B1: MEKK1 (protein, UniProt Q39008 1-608)
chain: MDRILARMKKSTGRRGGDKNITPVRRLERRDAARNINYDAASCSSSSAEDLSVSTSSLMTRSLEFPEPTSFRIGGGVGEMDRIYRSLGVSGPDDLAISFDAWEACKKRSSSDVVNRFKSFDLDKVRDQDLSEEGPSGVVVGSDSMNHKVQGQDLSEAGPSGGIVTELSEIGNLITPVDRLVADGVVENRRVMERTPTIVKSKGYLVPNNVVAVGVGVGGGIKGLRPPVLKPPPAMKRPPIDHRGSSWDFLTHFAPSETVKRPSSSSSSSEDGCDEEEGKEEEAEAEEMGARFIQLGDTADETCSFTTNEGDSSSTVSNTSPIYPDGGAIITSWQKGQLLGRGSFGSVYEGISGDGDFFAVKEVSLLDQGSQAQECIQQLEGEIKLLSQLQHQNIVRYRGTAKDGSNLYIFLELVTQGSLLKLYQRYQLRDSVVSLYTRQILDGLKYLHDKGFIHRDIKCANILVDANGAVKLADFGLAKVSKFNDIKSCKGTPFWMAPEVINRKDSDGYGSPADIWSLGCTVLEMCTGQIPYSDLEPVQALFRIGRGTLPEVPDTLSLDARLFILKCLKVNPEERPTAAELLNHPFVRRPLPSVGSGGSGSASPLLRR
B2: ANP1 (protein, UniProt O22040 1-666)
chain: MQDFFGSVRRSLVFRPSSDDDNQENQPPFPGVLADKITSCIRKSKIFIKPSFSPPPPANTVDMAPPISWRKGQLIGRGAFGTVYMGMNLDSGELLAVKQVLIAANFASKEKTQAHIQELEEEVKLLKNLSHPNIVRYLGTVREDDTLNILLEFVPGGSISSLLEKFGPFPESVVRTYTRQLLLGLEYLHNHAIMHRDIKGANILVDNKGCIKLADFGASKQVAELATMTGAKSMKGTPYWMAPEVILQTGHSFSADIWSVGCTVIEMVTGKAPWSQQYKEVAAIFFIGTTKSHPPIPDTLSSDAKDFLLKCLQEVPNLRPTASELLKHPFVMGKHKESASTDLGSVLNNLSTPLPLQINNTKSTPDSTCDDVGDMCNFGSLNYSLVDPVKSIQNKNLWQQNDNGGDEDDMCLIDDENFLTFDGEMSSTLEKDCHLKKSCDDISDMSIALKSKFDESPGNGEKESTMSMECDQPSYSEDDDELTESKIKAFLDEKAADLKKLQTPLYEEFYNSLITFSPSCMESNLSNSKREDTARGFLKLPPKSRSPSRGPLGGSPSRATDATSCSKSPGSGGSRELNINNGGDEASQDGVSARVTDWRGLVVDTKQELSQCVALSEIEKKWKEELDQELERKRQEIMRQAGLGSSPRDRGMSRQREKSRFASPGK
B3: ANP2 (protein, UniProt Q9FZ36 1-651)
chain: MQDLFGSVRRSLVFRSTTDDENQENHPPPFPSLLADKITSCIRKSMVFAKSQSPPNNSTVQIKPPIRWRKGQLIGRGAFGTVYMGMNLDSGELLAVKQVLITSNCASKEKTQAHIQELEEEVKLLKNLSHPNIVRYLGTVREDETLNILLEFVPGGSISSLLEKFGAFPESVVRTYTNQLLLGLEYLHNHAIMHRDIKGANILVDNQGCIKLADFGASKQVAELATISGAKSMKGTPYWMAPEVILQTGHSFSADIWSVGCTVIEMVTGKAPWSQQYKEIAAIFHIGTTKSHPPIPDNISSDANDFLLKCLQQEPNLRPTASELLKHPFVTGKQKESASKDLTSFMDNSCSPLPSELTNITSYQTSTSDDVGDICNLGSLTCTLAFPEKSIQNNSLCLKSNNGYDDDDDNDMCLIDDENFLTYNGETGPSLDNNTDAKKSCDTMSEISDILKCKFDENSGNGETETKVSMEVDHPSYSEDENELTESKIKAFLDDKAAELKKLQTPLYEEFYNGMITCSPICMESNINNNKREEAPRGFLKLPPKSRSPSQGHIGRSPSRATDAACCSKSPESGNSSGAPKNSNASAGAEQESNSQSVALSEIERKWKEELDQELERKRREITRQAGMGSSPRDRSLSRHREKSRFASPGK

Molecular target: T1, Mitogen-activated protein kinase kinase 5 (MKK5) (Arabidopsis)
Assay: two-hybrid; ProQuest Two-Hybrid System (Invitrogen) in yeast; pEXP32-MKK5 as bait, pEXP22-MEKK1 as prey; growth on SC -Leu -Trp -Ura, on 0.2% 5-FOA, on -His with 100 mM 3AT, X-Gal assay on membrane, quantitative beta-galactosidase assay in liquid culture

B1 was tested. Which binding did it give?
The binding was “binds”.

With B2 as the binder, how does the binding read?
Its binding is “no binding”.

Which binding does the source give for B3 here?
Its binding is “no binding”.
